Measured values: patent EP4796565A1 (Yongzhou Zhonggu Biotechnology Co., Ltd., priority 2023, dated 2025)

Experiment: Fmoc solid-phase peptide synthesis
Settings: whole synthesis

Substance: PEPTIDE1{G.R.K.K.R.R.Q.R.R.R.P.P.Q.[bAla].C.W.M.S.P.R.H.L.G.T.C.[am]}$PEPTIDE1,PEPTIDE1,15:R3-25:R3$$$V2.0
- final purity (method not given): exceeding 95%

HELM strings list residues between dots; [ac] is acetyl, [am] amide, other brackets name non-standard units.
